Laboratory results published in the supplement of paper PMC10849652.
This is one part of the list.

Protein sequences, listed by entry. Tags and fused reporters are not part of them. Lines headed by an entry give the natural chain unless they say otherwise; changes in a name come on top.
UniProt Q8N9V7: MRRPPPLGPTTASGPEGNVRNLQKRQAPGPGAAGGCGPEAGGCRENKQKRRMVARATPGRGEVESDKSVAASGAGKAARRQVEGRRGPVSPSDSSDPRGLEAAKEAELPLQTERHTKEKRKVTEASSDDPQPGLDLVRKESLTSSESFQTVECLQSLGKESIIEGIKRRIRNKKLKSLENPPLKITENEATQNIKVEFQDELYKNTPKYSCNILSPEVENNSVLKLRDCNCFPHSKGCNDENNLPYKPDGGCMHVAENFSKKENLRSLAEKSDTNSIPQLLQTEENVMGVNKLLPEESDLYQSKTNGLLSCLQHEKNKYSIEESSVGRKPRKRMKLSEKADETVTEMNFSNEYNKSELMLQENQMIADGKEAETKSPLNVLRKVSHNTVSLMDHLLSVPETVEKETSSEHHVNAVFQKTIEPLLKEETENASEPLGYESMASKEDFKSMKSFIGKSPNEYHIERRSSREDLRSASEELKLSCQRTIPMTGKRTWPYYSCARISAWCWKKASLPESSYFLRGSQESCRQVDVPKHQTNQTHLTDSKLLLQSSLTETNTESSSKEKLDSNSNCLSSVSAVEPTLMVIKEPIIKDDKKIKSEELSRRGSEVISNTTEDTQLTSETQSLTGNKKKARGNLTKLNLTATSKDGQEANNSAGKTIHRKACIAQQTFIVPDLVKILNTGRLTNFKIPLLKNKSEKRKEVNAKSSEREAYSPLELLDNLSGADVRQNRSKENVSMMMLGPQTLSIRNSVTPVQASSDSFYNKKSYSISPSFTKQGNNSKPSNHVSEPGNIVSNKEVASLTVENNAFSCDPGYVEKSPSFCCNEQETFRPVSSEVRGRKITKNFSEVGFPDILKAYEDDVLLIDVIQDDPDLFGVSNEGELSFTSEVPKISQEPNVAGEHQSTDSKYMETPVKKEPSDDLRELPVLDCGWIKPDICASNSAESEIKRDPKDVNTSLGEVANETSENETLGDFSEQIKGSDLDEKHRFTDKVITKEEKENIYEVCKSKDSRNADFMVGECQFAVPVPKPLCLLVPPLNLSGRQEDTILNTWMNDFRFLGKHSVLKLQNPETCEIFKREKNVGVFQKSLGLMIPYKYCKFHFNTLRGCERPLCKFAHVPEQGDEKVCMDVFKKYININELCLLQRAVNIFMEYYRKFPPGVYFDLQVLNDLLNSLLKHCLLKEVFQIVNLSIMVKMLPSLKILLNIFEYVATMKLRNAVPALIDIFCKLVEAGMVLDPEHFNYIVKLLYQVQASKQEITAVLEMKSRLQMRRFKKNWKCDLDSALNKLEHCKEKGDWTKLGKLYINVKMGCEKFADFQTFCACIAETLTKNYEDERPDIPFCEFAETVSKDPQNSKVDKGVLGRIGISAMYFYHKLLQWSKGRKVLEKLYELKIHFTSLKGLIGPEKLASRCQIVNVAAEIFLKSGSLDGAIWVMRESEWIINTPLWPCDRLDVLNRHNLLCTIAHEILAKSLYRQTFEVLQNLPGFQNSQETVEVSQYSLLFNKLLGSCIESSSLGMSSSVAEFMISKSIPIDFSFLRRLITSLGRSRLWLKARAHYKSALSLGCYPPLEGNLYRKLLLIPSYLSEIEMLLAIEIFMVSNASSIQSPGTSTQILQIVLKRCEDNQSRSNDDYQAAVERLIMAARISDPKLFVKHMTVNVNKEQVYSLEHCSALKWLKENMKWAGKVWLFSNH
UniProt P67936, whole entry, looked up: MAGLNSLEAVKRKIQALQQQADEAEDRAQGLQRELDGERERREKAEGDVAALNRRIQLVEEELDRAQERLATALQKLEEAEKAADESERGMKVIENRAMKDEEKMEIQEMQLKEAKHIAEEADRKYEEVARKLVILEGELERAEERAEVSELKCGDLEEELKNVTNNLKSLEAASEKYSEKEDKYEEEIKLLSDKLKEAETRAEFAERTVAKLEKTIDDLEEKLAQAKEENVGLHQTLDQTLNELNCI
UniProt Q96HA7: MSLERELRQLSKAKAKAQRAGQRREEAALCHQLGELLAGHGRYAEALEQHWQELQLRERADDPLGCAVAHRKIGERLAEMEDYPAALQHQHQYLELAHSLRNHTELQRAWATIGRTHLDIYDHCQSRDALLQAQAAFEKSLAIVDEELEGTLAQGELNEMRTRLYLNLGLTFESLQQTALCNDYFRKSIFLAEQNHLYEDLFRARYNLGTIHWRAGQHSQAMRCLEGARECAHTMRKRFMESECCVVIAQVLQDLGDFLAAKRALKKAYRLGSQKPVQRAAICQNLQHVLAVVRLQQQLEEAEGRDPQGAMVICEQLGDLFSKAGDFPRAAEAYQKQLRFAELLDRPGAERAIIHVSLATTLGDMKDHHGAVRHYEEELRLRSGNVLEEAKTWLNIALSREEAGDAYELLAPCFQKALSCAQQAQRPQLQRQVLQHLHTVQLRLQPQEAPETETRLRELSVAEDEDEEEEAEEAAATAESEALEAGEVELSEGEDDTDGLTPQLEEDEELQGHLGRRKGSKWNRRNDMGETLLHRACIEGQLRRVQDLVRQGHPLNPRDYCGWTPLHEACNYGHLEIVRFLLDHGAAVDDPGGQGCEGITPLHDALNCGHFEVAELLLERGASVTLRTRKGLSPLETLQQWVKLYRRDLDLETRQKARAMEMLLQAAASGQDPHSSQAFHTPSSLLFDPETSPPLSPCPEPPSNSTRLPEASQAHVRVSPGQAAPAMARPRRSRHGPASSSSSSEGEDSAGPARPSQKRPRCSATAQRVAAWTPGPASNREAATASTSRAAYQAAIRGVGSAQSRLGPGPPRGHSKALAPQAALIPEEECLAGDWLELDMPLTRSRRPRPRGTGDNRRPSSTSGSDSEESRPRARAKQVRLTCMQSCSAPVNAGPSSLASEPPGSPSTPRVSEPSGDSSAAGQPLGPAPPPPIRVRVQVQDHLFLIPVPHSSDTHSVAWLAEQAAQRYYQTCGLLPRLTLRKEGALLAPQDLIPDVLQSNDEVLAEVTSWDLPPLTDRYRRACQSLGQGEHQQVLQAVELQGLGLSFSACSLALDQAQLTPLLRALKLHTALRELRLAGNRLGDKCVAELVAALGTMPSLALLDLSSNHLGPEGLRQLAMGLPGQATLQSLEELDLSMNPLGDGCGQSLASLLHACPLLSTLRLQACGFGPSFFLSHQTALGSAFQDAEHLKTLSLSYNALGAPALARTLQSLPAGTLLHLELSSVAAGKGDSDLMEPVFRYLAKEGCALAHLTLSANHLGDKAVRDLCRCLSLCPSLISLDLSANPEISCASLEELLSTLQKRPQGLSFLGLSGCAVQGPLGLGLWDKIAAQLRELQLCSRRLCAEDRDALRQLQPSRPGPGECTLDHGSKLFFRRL
UniProt P82094: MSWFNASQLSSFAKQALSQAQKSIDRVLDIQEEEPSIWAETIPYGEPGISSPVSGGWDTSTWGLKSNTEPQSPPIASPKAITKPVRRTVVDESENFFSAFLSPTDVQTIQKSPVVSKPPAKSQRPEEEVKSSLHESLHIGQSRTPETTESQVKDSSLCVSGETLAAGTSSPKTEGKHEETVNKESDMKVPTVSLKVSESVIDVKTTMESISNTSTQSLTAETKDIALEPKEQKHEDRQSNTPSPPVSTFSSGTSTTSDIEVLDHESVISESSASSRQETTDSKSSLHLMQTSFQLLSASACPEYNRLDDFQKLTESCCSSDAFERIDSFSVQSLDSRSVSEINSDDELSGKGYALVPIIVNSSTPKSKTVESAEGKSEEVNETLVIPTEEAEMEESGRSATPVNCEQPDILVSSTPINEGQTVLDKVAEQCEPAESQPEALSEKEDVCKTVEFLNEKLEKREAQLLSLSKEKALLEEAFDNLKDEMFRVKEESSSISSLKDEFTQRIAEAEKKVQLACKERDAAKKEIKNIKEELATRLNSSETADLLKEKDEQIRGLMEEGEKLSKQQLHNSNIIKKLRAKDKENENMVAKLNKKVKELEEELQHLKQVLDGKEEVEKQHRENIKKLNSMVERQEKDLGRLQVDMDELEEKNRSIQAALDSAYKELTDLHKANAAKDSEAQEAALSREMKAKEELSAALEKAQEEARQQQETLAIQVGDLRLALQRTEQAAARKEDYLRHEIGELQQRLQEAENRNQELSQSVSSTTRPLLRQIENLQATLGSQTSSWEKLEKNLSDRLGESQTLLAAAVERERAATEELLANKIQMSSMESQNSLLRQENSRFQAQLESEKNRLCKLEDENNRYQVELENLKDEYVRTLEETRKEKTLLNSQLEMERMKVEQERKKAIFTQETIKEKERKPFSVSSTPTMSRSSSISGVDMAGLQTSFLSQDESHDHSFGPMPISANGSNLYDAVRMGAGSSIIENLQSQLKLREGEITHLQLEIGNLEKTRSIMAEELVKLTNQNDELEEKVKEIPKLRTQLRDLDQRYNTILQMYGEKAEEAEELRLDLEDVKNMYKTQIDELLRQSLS
UniProt Q16890: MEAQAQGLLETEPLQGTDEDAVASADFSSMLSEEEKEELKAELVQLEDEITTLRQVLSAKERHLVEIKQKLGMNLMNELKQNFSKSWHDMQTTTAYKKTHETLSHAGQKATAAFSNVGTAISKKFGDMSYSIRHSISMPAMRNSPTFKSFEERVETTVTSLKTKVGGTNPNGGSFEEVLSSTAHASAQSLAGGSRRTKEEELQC
UniProt Q9NVH6: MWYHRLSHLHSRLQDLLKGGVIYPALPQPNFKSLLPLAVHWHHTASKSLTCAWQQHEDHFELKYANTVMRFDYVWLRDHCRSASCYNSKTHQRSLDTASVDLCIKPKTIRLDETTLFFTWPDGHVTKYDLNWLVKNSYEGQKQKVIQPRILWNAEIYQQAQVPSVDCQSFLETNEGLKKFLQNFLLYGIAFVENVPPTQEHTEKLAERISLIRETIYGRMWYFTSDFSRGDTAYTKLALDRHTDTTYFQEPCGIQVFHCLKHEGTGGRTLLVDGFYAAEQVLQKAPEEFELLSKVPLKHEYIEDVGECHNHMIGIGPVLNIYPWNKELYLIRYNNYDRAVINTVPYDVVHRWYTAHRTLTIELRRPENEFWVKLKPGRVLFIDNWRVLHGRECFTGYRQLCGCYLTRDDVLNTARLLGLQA
UniProt Q4ZIN3: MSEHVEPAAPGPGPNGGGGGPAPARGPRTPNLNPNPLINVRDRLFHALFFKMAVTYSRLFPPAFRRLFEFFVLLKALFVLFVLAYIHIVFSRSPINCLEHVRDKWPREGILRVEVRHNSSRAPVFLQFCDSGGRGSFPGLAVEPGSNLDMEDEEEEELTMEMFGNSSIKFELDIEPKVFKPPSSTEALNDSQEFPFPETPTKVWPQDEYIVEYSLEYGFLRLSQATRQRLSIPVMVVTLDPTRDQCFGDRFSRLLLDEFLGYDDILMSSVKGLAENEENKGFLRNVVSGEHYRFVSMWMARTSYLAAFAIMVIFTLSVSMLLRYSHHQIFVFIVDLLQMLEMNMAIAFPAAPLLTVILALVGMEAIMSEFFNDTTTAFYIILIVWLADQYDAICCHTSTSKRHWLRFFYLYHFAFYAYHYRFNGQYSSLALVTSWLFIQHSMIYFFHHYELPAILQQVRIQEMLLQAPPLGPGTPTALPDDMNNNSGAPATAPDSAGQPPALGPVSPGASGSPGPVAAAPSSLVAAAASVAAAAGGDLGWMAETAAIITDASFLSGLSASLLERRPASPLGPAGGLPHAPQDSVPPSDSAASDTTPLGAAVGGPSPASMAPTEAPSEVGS
UniProt Q9NXH8: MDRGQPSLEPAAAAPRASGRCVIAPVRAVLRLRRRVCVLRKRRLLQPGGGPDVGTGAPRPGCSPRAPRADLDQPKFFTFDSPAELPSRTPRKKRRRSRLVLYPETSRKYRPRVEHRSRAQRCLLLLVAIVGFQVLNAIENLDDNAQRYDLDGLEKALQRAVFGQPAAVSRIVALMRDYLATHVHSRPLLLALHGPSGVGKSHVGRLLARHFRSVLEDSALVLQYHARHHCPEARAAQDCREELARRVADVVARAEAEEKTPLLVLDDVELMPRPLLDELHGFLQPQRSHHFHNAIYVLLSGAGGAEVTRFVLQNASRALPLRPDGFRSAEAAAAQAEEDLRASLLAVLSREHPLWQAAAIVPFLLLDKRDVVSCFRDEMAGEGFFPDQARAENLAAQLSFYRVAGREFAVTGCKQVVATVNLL
UniProt Q86XT9, whole entry, looked up: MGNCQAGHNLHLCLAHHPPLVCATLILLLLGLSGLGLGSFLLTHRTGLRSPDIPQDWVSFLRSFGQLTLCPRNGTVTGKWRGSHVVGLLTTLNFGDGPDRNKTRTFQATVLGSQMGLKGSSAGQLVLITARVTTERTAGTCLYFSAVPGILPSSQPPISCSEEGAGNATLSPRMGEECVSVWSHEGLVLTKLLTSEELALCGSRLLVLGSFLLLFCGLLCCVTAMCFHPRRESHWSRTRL
UniProt Q9H3N1: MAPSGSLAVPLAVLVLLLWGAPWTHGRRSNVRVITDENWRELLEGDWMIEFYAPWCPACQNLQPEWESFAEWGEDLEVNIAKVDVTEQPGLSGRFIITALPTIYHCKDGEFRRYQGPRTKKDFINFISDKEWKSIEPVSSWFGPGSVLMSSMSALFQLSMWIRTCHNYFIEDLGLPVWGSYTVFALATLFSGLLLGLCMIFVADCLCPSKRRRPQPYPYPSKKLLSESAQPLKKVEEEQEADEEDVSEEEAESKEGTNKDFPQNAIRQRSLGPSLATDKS

Legend:
Test in all cases: log2 fold change, soluble protein after heating vs DMSO (PISA); higher = thermal stabilisation; K562 lysate, 10 uM; active = over 0.2 and 3.5 SD of the protein, either way, in both replicates (recomputed)
erlotinib = compound: C#Cc1cccc(Nc2ncnc3cc(OCCOC)c(OCCOC)cc23)c1 [erlotinib]
Summary of the method: (§1)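 Following dounce homogenisation of K562 pellets in PBS pH 7.4 with 1 mM MgCl2, crude extract at 1 mg/mL protein was incubated for 30 min with 10 μM compound. Aliquots were then heated for 3 min over 48°C-58°C and pooled, NP-40 was added to 0.5% at 4°C, and soluble protein was recovered as the supernatant at 21,000xg for 90 min. Channel-sum-equalised TMTpro 16plex LC-MS/MS quantified this protein. Each value, from duplicates, is a log-two fold change in thermal stability relative to solvent controls.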

[1] = compound: C/C(=N\NC(=O)C1=CC(=CC=C1)S(=O)(=O)N2CCOCC2)/C3=C(C=CC(=C3)Cl)O
Summary of the method: as §1

[2] = compound: C1=CC(=CC=C1C2=NC3=C(N2)C=C(C=C3)C(=O)N)OC4=CC=C(C=C4)Cl
Summary of the method: as §1

[3] = compound: C1=CC2=C(C=CC(=C2)/C=C\3/C(=O)NC(=NCC4=CC=CS4)S3)N=C1
Summary of the method: as §1

[4] = compound: C1=CC2=NC=CN=C2C=C1/C=C/3\C(=O)NC(=O)S3
Summary of the method: as §1

[5] = compound: C1=CC=C(C=C1)C2=NC(=C(N2)C3=CC=NC=C3)C4=CC(=C(C=C4)Cl)O
Summary of the method: as §1

[6] = compound: C1=CC=C2C(=C1)C3=NNC4=CC=CC(=C43)C2=O
Summary of the method: as §1

[7] = compound: C1CCN(C1)C(=O)NC2=CC=CC(=C2)NC3=NC=C(C(=N3)NCCC4=CN=CN4)Br
Summary of the method: as §1

[8] = compound: C1CN(CCC1(CC2=CC=C(C=C2)Cl)N)C3=NC=NC4=C3C=CN4
Summary of the method: as §1

IRAK-1-4 Inhibitor I = compound: C1COCCN1CCN2C3=CC=CC=C3N=C2NC(=O)C4=CC(=CC=C4)[N+](=O)[O-] [IRAK-1-4 Inhibitor I]
Summary of the method: as §1

Measured: log2 fold change

TOLLIP (UniProt Q9H0E2)
inactive: erlotinib 0.039 | [1] -0.025 | [2] 0.016 | [3] 0.006 | [4] -0.015 | [5] -0.027 | [6] 0.003 | [7] -0.071 | [8] -0.026 | IRAK-1-4 Inhibitor I 0.007

TOPAZ1 (UniProt Q8N9V7)
inactive: erlotinib -0.012 | [1] 0.806 | [2] 0.003 | [3] -0.073 | [4] -0.062 | [5] -0.553 | [6] -0.063 | [7] -0.188 | [8] -0.16 | IRAK-1-4 Inhibitor I -0.07

TMEM189-UBE2V1 (UniProt I3L0A0)
inactive: erlotinib -0.041 | [1] 0.25 | [2] 0.019 | [3] -0.019 | [4] 0.003 | [5] 0.024 | [6] 0.061 | [7] -0.015 | [8] -0.013 | IRAK-1-4 Inhibitor I -0.004

TPCN1 isoform 3 (UniProt Q9ULQ1)
inactive: erlotinib -0.074 | [1] -0.081 | [2] 0.108 | [3] -0.089 | [4] 0.064 | [5] 0.02 | [6] 0.037 | [7] -0.008 | [8] 0.02 | IRAK-1-4 Inhibitor I 0.04

TOP2B isoform 2 (UniProt Q02880)
inactive: erlotinib 0.006 | [1] -0.004 | [2] -0.005 | [3] 0.057 | [4] -0.011 | [5] 0.009 | [6] 0.058 | [7] 0.029 | [8] -0.012 | IRAK-1-4 Inhibitor I 0.014

TMX4 (UniProt Q9H1E5)
inactive: erlotinib -0.011 | [1] 0.53 | [2] -0.073 | [3] 0.025 | [4] -0.015 | [5] -0.094 | [6] -0.035 | [7] -0.028 | [8] -0.005 | IRAK-1-4 Inhibitor I -0.04

TMEM87A (UniProt Q8NBN3)
inactive: erlotinib -0.015 | [1] -0.021 | [2] 0.01 | [3] 0.037 | [4] -0.02 | [5] -0.02 | [6] -0.027 | [7] 0.031 | [8] -0.004 | IRAK-1-4 Inhibitor I -0.028

TOP1 (UniProt P11387)
inactive: erlotinib -0.032 | [1] -0.019 | [2] -0.048 | [3] 0.016 | [4] 0.014 | [5] 0.014 | [6] 0.061 | [7] 0.025 | [8] 0.014 | IRAK-1-4 Inhibitor I -0.023

TPP1 (UniProt O14773)
inactive: erlotinib 0.02 | [1] -0.032 | [2] -0.009 | [3] 0.018 | [4] 0.009 | [5] -0.005 | [6] -0.021 | [7] 0.007 | [8] 0.025 | IRAK-1-4 Inhibitor I 0.021

TPK1 (UniProt Q9H3S4)
inactive: erlotinib -0.105 | [1] -0.135 | [2] -0.018 | [3] 0.095 | [4] 0.037 | [5] -0.061 | [6] -0.069 | [7] 0.037 | [8] 0.075 | IRAK-1-4 Inhibitor I -0.013

TOMM40L (UniProt Q969M1)
inactive: erlotinib 0.013 | [1] 0.027 | [2] 0.047 | [3] -0.035 | [4] 0.068 | [5] -0.057 | [6] -0.058 | [7] -0.057 | [8] -0.008 | IRAK-1-4 Inhibitor I -0.033

TPM4 (UniProt P67936)
inactive: erlotinib 0.028 | [1] 0.048 | [2] 0.005 | [3] 0.058 | [4] -0.012 | [5] 0.001 | [6] 0.009 | [7] -0.064 | [8] -0.012 | IRAK-1-4 Inhibitor I 0.028

TONSL (UniProt Q96HA7)
inactive: erlotinib -0.04 | [1] -0.022 | [2] 0.123 | [3] -0.018 | [4] 0.082 | [5] 0.011 | [6] 0.031 | [7] -0.07 | [8] 0.039 | IRAK-1-4 Inhibitor I -0.018

TMF1 isoform 2 (UniProt P82094)
inactive: erlotinib 0.021 | [1] -0.053 | [2] 0.045 | [3] 0.029 | [4] 0.016 | [5] -0.022 | [6] -0.048 | [7] -0.013 | [8] -0.016 | IRAK-1-4 Inhibitor I 0.028

TPD52L1 (UniProt Q16890)
inactive: erlotinib -0.035 | [1] -0.047 | [2] 0.038 | [3] 0 | [4] -0.028 | [5] 0.005 | [6] 0.034 | [7] -0.004 | [8] 0.028 | IRAK-1-4 Inhibitor I 0.007

TMEM87B (UniProt Q96K49)
inactive: erlotinib -0.016 | [1] 0.103 | [2] 0.093 | [3] -0.003 | [4] 0.117 | [5] 0.03 | [6] -0.019 | [7] 0.006 | [8] -0.008 | IRAK-1-4 Inhibitor I -0.045

TMEM245 (UniProt Q9H330)
inactive: erlotinib 0.008 | [1] -0.032 | [2] 0.031 | [3] 0.006 | [4] -0.033 | [5] 0.012 | [6] -0.003 | [7] -0.03 | [8] -0.038 | IRAK-1-4 Inhibitor I 0.058

TOMM7 (UniProt Q9P0U1)
inactive: erlotinib 0.031 | [1] -0.021 | [2] -0.039 | [3] -0.042 | [4] -0.015 | [5] 0.083 | [6] -0.055 | [7] -0.029 | [8] 0.005 | IRAK-1-4 Inhibitor I -0.003

TMLHE isoform 8 (UniProt Q9NVH6)
inactive: erlotinib -0.014 | [1] -0.065 | [2] 0.017 | [3] -0.056 | [4] -0.006 | [5] -0.013 | [6] 0.037 | [7] 0.002 | [8] 0.068 | IRAK-1-4 Inhibitor I 0.038

TP53BP1 isoform 2 (UniProt Q12888)
inactive: erlotinib -0.004 | [1] 0 | [2] 0.015 | [3] 0.008 | [4] -0.01 | [5] -0.004 | [6] -0.02 | [7] 0.006 | [8] 0.001 | IRAK-1-4 Inhibitor I 0.012

TMEM259 (UniProt Q4ZIN3)
inactive: erlotinib 0.127 | [1] -0.127 | [2] -0.05 | [3] -0.059 | [4] -0.01 | [5] 0.016 | [6] 0.019 | [7] -0.053 | [8] 0.152 | IRAK-1-4 Inhibitor I -0.007

TOR4A (UniProt Q9NXH8)
inactive: erlotinib 0.02 | [1] -0.097 | [2] -0.06 | [3] 0.016 | [4] -0.013 | [5] -0.006 | [6] 0.04 | [7] 0.033 | [8] 0.034 | IRAK-1-4 Inhibitor I -0.012

Looked up one by one from above (2):
TOMM7 (UniProt Q9P0U1)
inactive: erlotinib 0.031 | [1] -0.021 | [2] -0.039 | [3] -0.042 | [4] -0.015 | [5] 0.083 | [6] -0.055 | [7] -0.029 | [8] 0.005 | IRAK-1-4 Inhibitor I -0.003

TMEM259 (UniProt Q4ZIN3)
inactive: erlotinib 0.127 | [1] -0.127 | [2] -0.05 | [3] -0.059 | [4] -0.01 | [5] 0.016 | [6] 0.019 | [7] -0.053 | [8] 0.152 | IRAK-1-4 Inhibitor I -0.007

More results follow:

TMEM219 (UniProt Q86XT9)
inactive: erlotinib 0.062 | [1] 0.024 | [2] 0.106 | [3] 0.106 | [4] -0.062 | [5] -0.038 | [6] -0.081 | [7] 0.101 | [8] 0.083 | IRAK-1-4 Inhibitor I 0.008

TMX1 (UniProt Q9H3N1)
inactive: erlotinib -0.036 | [1] 0.019 | [2] -0.02 | [3] 0.003 | [4] 0.019 | [5] -0.012 | [6] -0.005 | [7] -0.003 | [8] 0.014 | IRAK-1-4 Inhibitor I -0.032

TNPO1 (UniProt Q92973)
inactive: erlotinib 0.014 | [1] -0.038 | [2] 0.006 | [3] 0.001 | [4] 0.017 | [5] -0.021 | [6] -0.007 | [7] -0.015 | [8] 0.024 | IRAK-1-4 Inhibitor I 0.021

TMEM205 (UniProt Q6UW68)
inactive: erlotinib -0.066 | [1] -0.157 | [2] -0.003 | [3] 0.087 | [4] -0.105 | [5] -0.016 | [6] -0.069 | [7] -0.102 | [8] 0.021 | IRAK-1-4 Inhibitor I 0.125

TOR1B (UniProt O14657)
inactive: erlotinib -0.033 | [1] -0.034 | [2] 0.013 | [3] -0.008 | [4] -0.015 | [5] -0.082 | [6] -0.024 | [7] 0.018 | [8] -0.073 | IRAK-1-4 Inhibitor I 0.019
